Results: US20120082680A1 (Merck Sharp & Dohme, published 2012)
Changes are numbered by the printed parent chain. Results are given in words; binding and its absence hold for the method and conditions named. Some binding calls cover weakened binding; strength is not graded here.

The chains behind the UniProt entries cited, without tags or fusion partners. Residues count along the entry.
UniProt Q8NBP7, residues 31-692: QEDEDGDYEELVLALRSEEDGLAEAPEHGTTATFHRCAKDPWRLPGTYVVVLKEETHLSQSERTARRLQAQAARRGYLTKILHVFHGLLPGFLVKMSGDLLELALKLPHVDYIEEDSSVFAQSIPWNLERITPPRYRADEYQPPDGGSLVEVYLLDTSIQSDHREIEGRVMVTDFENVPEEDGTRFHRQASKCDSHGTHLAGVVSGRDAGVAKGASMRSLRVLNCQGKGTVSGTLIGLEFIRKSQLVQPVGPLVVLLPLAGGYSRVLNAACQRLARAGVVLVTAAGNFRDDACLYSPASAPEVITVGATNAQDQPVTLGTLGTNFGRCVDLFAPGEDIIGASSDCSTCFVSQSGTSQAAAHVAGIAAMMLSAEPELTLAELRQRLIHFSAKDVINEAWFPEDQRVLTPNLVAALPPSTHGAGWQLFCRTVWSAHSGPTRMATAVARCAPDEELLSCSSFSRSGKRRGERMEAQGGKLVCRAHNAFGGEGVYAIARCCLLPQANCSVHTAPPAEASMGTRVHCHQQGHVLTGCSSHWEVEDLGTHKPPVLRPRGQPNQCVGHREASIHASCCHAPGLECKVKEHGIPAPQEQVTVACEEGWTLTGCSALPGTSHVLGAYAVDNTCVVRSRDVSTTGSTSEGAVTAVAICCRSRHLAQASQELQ

B1: 1CX1G08 (Fab, V domains shown)
VH: QVQLVESGGGLVQPGGSLRLSCAASGFTFSDYWVSWVRQAPGKGLEWVSFISYDGSSTYYADSVKGRFTISRDNSKNTLYLQMNSLRAEDTAVYYCARTYFEGVDVWGQGTLVTVSS
VL: DIELTQPPSVSVAPGQTARISCSGDNIGTYYVHWYQQKPGQAPVLVIYDDSNRPSGIPERFSGSNSGNTATLTISGTQAEDEADYYCGTWDNTSFNLVFGGGTKLTVLG
B2: 3BX5C01 (Fab, V domains shown)
VH: QVQLVQSGAEVKKPGESLKISCKGSGYSFTSYGISWVRQMPGKGLEWMGMIDPSDSFTTYSPSFQGQVTISADKSISTAYLQWSSLKASDTAMYYCARGYYFTYALQPMDHWGQGTLVTVSS
VL: DIELTQPPSVSVAPGQTARISCSGDNLRDYIVHWYQQKPGQAPVLVIYDDSNRPSGIPERFSGSNSGNTATLTISGTQAEDEADYYCGFDNGGDIDVFGGGTKLTVLG
B3: 3CX2A06 (Fab, V domains shown)
VH: QVQLVQSGAEVKKPGESLKISCKGSGYSFSNFWIAWVRQMPGKGLEWMGIIDPSDSWTRYSPSFQGQVTISADKSISTAYLQWSSLKASDTAMYYCARGDGQDFDNWGQGTLVTVSS
VL: DIQMTQSPSSLSASVGDRVTITCRASQNINSYLNWYQQKPGKAPKLLIYAASSLQSGVPSRFSGSGSGTDFTLTISSLQPEDFAVYYCLQNYDLPNTFGQGTKVEIKR
B4: 3CX3D02 (Fab, V domains shown)
VH: QVQLVQSGAEVKKPGESLKISCKGSGYSFTNSWIGWVRQMPGKGLEWMGIIYPSDSYTIYSPSFQGQVTISADKSISTAYLQWSSLKASDTAMYYCARGGGYYYALMDVWAQGTLVTVSS
VL: B3 VL with N28T, N30S, S31T, Y32W, V85T, N91D, Y92S, D93S, N96L
B5: 3CX4B08 (Fab, V domains shown)
VH: QVQLVESGGGLVQPGGSLRLSCAASGFTFSNYTMNWVRQAPGKGLEWVSFISSSSSETYYADSVKGRFTISRDNSKNTLYLQMNSLRAEDTAVYYCARGYGDMVDLWGQGTLVTVSS
VL: DIELTQPPSVSVAPGQTARISCSGDSIPTYYVAWYQQKPGQAPVLVIYSDTDRPSGIPERFSGSNSGNTATLTISGTQAEDEADYYCQSFDNHGYHVFGGGTKLTVLG

molecular target: V5-, His-tagged recombinant human PCSK9 protein (human) (UniProt Q8NBP7); experiment: ELISA on immobilized V5-, His-tagged PCSK9, HRP anti-Fab detection

binding, binds:
B1, B2, B3, B4, B5
